Results taken from the supplement of paper PMC3334620.
Over roughly 33,000 sequences, “E-score (-0.5 to 0.5)” has its median near -0.0014; the highest 2% begin near 0.25. The list shows a part of the results.

The sequences below were run against T1, Cad1 (UniProt P24813) (assay: PBM E-score (8-mer binding enrichment) (E-score (-0.5 to 0.5)); higher = stronger / more preferred TF binding). Conditions: protein concentration: 100 nM; construct: GST-full length.
T1 sequence: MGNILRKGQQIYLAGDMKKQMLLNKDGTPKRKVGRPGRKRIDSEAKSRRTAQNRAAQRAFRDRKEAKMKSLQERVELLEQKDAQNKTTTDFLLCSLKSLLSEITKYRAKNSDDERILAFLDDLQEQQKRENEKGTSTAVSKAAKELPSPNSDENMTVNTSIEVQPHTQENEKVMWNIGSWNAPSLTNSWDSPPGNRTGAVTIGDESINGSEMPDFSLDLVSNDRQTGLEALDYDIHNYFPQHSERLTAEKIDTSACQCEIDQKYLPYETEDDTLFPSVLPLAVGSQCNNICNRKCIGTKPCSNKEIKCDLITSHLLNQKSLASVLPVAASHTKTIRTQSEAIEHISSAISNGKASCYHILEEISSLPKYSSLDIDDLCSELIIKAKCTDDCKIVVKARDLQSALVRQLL
Method in brief: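 E-scores (a modified Wilcoxon-Mann-Whitney statistic) were assigned by the Universal PBM Analysis Suite to every ungapped eight-base word pooled with its reverse complement. The input came from universal all-10-mer Agilent arrays made double-stranded by primer extension and probed with GST-tagged yeast transcription factors at about 100-200 nM. Fluorescent anti-GST detected bound protein, and masliner normalised the scans.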

Sequence | PBM E-score
GCATATAC | 0.0034
ACGCGGTA | 0.0739
GTTCAGTA | 0.224
CCTGACCG | -0.23
CGTTATCC | 0.013
CAACTCTG | -0.202
AACAGACC | 0.143
CTCGGATC | 0.101
AAAGATTT | -0.0295
CATTCGCC | -0.232
CCCTTTTC | -0.266
CTCGGGGC | -0.323
AGAATCCC | 0.138
CTCCATTC | -0.144
CACAGTAC | 0.0719
CTACGGTC | -0.215
AAATCATT | 0.148
CACAACAC | 0.12
CAGTCCGG | -0.229
ATTGCTCC | -0.0784
GTATAGCA | 0.197
CCTTCCAA | -0.0893
CATAGGCG | -0.107
TACACCTA | 0.132
GCAGGGAC | -0.0954

Sequence | PBM E-score
GAACGCTA | -0.231
GCTAGAGC | -0.15
ACGGGCAT | -0.145
GGGCAAAA | -0.0364
ATATCCGC | 0.108
AGTTGTTC | 0.0834
CAAAAAGG | -0.127
CTAATGTC | 0.134
AGACTGTG | -0.0862
GTACGGAA | 0.0941
CAGCCTGG | -0.175
ATATCGGA | 0.0646
TACCCGTA | -0.114
CTCCTACC | -0.236
ATCGCCGA | 0.0544
AGTCCCCA | -0.26
AAAAGGGT | -0.0785
TCGGATAA | 0.132
TCTTATAA | 0.0694
CTTCGCGA | 0.143
CGCGTAAC | 0.0624
CAGCGCTC | 0.153
TCACTCCA | 0.0562
ATTAAAGC | 0.0329
CGGTCAGA | 0.0228

Quoted from the listing:
Entry of AGACTGTG under PBM E-score: -0.0862
Entry of CAGCCTGG under PBM E-score: -0.175
Entry of CGGTCAGA under PBM E-score: 0.0228
Entry of TCACTCCA under PBM E-score: 0.0562
Entry of AGTCCCCA under PBM E-score: -0.26
Entry of ACGGGCAT under PBM E-score: -0.145
Entry of CGCGTAAC under PBM E-score: 0.0624

(further entries)

Sequence | PBM E-score
AGCAGTTC | -0.0686
AAATGGAC | 0.234
TCAGGTAA | 0.0161
CGTTATAA | 0.163
TACGGGGA | -0.157
ATCAGCCA | -0.126
AGGCCATC | -0.0684
AGGTAACT | 0.011
CCTCAAGA | -0.172
AAAGAGAA | -0.00557
ACCAACAA | 0.185
CCCTTTCC | -0.177
TCAACGAA | 0.0907
ATGGCCAG | 0.273
AGCGAAAA | -0.0296
ACCAGCGG | -0.15
CCGTGATC | 0.00451
ACCTTGCA | -0.0166
GTATGCCA | -0.16
CTTGTTTA | 0.0129
ACTTTCCC | -0.0753
AACGCGGT | 0.0752
CAATCTTA | 0.023
CACCCAAC | -0.136
ATTGCGTC | 0.159

Sequence | PBM E-score
AACTTATG | 0.0338
CGTAATTC | 0.143
TTGAAAAA | -0.00366
AAAGTCTT | 0.0329
ACTCTACT | 0.0904
ACGACGAA | 0.176
AGAGAAGA | -0.143
CCCCCAGA | -0.419
ATAAGCTA | -0.0126
CGCCAGTC | -0.161
ACTTGCAG | -0.132
CTTAACCC | -0.104
AAGTCAGA | -0.0585
CACGGTCA | 0.0957
AAGCTTGA | -0.198
ACCTACTC | 0.0147
AGCCGGCC | 0.0891
GCCCAAAC | 0.0902
AGTATGTC | 0.135
GAAATATC | 0.139
AACTGACT | 0.0993
ATTAGATC | 0.03
GCAAGCTA | 0.083
CACCTACA | 0.057
ATCGGATG | 0.0369

Sequence | PBM E-score
GCGTACAC | -0.00619
CTTGCAGC | -0.057
AACGTAAG | 0.151
CAATACTG | -0.146
ATCTTTAC | 0.106
GATTCTGA | 0.119
TCCTGAGA | -0.103
AGAGGATC | -0.18
CCCAAAAA | -0.0252
TAATCGTA | 0.193
CCAAGAAC | 0.0242
AGTTCAAT | -0.104
ACCTAATG | -0.323
CCGCCTAC | 0.0652
GTCCACAA | -0.0167
GCACACAC | 0.0834
AAGTAATA | 0.105
TTAGCTAA | 0.298
ACTACAAA | 0.0648
ATGTCGAG | -0.0317
GGTCGAGA | -0.149
ACGATCCG | 0.202
ATTGCGTG | 0.021
CGGTCCGC | -0.101
ACCACAAG | -0.17

Sequence | PBM E-score
CGGCTTGC | 0.136
AACACAGC | 0.281
ATCTATAC | -0.0819
CCACTCCC | -0.306
CTCAACAC | 0.099
CAGGCGGC | -0.105
CATATCGA | 0.113
GGTTGGGA | -0.211
ACCGTACT | -0.02
AATCCTCT | -0.191
CACTTCAG | 0.0433
ACACTTAT | -0.0118
CTGACCCC | -0.356
ACCGTTGA | -0.0844
AGCTAGCC | -0.0583
CCTCAACC | -0.0853
CTCTCGGC | -0.251
AAGTGGGA | 0.146
ACTCCGTC | 0.14
GCCCGAAC | -0.0307
AGTCCCTC | -0.343
GGAAGGAA | -0.129
ACTTGTGA | -0.00176
ATTCGAGA | 0.145
AAGGTATG | -0.0892

Sequence | PBM E-score
AGAAAGCA | 0.2
TGAAAACA | 0.131
AACACAAG | -0.0257
GGTAGTAC | -0.0112
GACATCAA | 0.182
CTCCCGCA | -0.046
ACCCACCC | 0.0404
AGTACGTG | -0.145
GGTGCCCA | -0.106
ATCAACGC | 0.153
ATACAGAG | -0.104
GCCGCAAC | 0.0201
CTTGCAAC | 0.171
GCTGACAA | 0.412
AAAATCCC | 0.0089
GTACTAGA | 0.127
AAGCCTGA | -0.0514
ACTTAGTA | 0.213
GAACCTAC | -0.0734
ACATCGGG | -0.191
CGCGGTCA | 0.0964
ACTTACAG | 0.0368
